Experiment in all cases: DAPA (streptavidin pull-down)
Series [1] addresses GFP-Sp1(1-785) (UniProt P08047). To be noted: reference for 1-740, mitotic HeLa extract; DAPA: 1 ug probe in 500 ul 20 mM Tris-HCl pH 7.8, 60 mM KCl, 2 mM MgCl2, 0.5 mM EDTA, 5% glycerol, 0.02% NP-40; 1 h at 4 C, then streptavidin-agarose 1 h at 4 C; protein in a lysate after overexpression; residues 1-785; protein details: GFP; label: 5' biotin on S1 strand.
Series [2] concerns the target Sp1 (endogenous, HeLa) (UniProt P08047). The note with it: mitosis, DAPA: 1 ug probe in 500 ul 20 mM Tris-HCl pH 7.8, 60 mM KCl, 2 mM MgCl2, 0.5 mM EDTA, 5% glycerol, 0.02% NP-40, 1 h at 4 C, then streptavidin-agarose 1 h at 4 C, protein in an extract, label: 5' biotin on S1 strand.
Series [3] has as its target HA-Sp1-4A S720A,T723A,T737A,T739A (UniProt P08047). To be noted: increased vs HA-Sp1, mitotic extract; DAPA: 1 ug probe in 500 ul 20 mM Tris-HCl pH 7.8, 60 mM KCl, 2 mM MgCl2, 0.5 mM EDTA, 5% glycerol, 0.02% NP-40; 1 h at 4 C, then streptavidin-agarose 1 h at 4 C; protein in a lysate after overexpression; residues 1-785; protein details: HA; label: 5' biotin on S1 strand.

Series [4] addresses HA-Sp1 (UniProt P08047). The note with it: reference, mitotic extract; DAPA: 1 ug probe in 500 ul 20 mM Tris-HCl pH 7.8, 60 mM KCl, 2 mM MgCl2, 0.5 mM EDTA, 5% glycerol, 0.02% NP-40; 1 h at 4 C, then streptavidin-agarose 1 h at 4 C; protein in a lysate after overexpression; residues 1-785; protein details: HA; label: 5' biotin on S1 strand.
Series [5] deals with GFP-Sp1(1-740) (UniProt P08047). To be noted: increased vs 1-785, mitotic HeLa extract; DAPA: 1 ug probe in 500 ul 20 mM Tris-HCl pH 7.8, 60 mM KCl, 2 mM MgCl2, 0.5 mM EDTA, 5% glycerol, 0.02% NP-40; 1 h at 4 C, then streptavidin-agarose 1 h at 4 C; protein in a lysate after overexpression; residues 1-740; protein details: GFP; label: 5' biotin on S1 strand.
Series [6] concerns the target HA-Sp1-4D S720D,T723D,T737D,T739D (UniProt P08047). To be noted: decreased vs HA-Sp1, mitotic extract; DAPA: 1 ug probe in 500 ul 20 mM Tris-HCl pH 7.8, 60 mM KCl, 2 mM MgCl2, 0.5 mM EDTA, 5% glycerol, 0.02% NP-40; 1 h at 4 C, then streptavidin-agarose 1 h at 4 C; protein in a lysate after overexpression; residues 1-785; protein details: HA; label: 5' biotin on S1 strand.

Construct, isoform or probe ends are uncertain for at least one entry. Results from cells or extracts need not show a direct contact. For some of these results: Weaker means in comparison with the reference protein, sequence or condition of that experiment. For some of these results: At least one verdict rests on a figure or table, not on a statement of the authors.

On to “CCCGCCTCCTTGAGGCGGGCCCGGGCGGGGCGG (double strand) [p21WAF1/CIP1 promoter Sp1 probe (-82 to -50)]”, for which the binding result in series [1] is recorded as “binds”; in series [2] (Pin1 knock-down, increased binding vs control), “binds”; in series [2] (control without Pin1 knock-down (reference)) it was “binds”; in series [3], “binds”; in series [4] it was “binds”; in series [5], “binds”. Also, the binding result in series [6] was “binds more weakly”.

The values above are taken from article PMC4267622, “Pin1-mediated Sp1 phosphorylation by CDK1 increases Sp1 stability and decreases its DNA-binding activity during mitosis” (Nucleic Acids Research, 2014).
